Experimental findings from the supplement of paper PMC9938546 are described below.

Where a name gives a salt, the structure may show the parent alone. This is one part of the list. Plates or batches differ in their baseline, so values are only roughly comparable.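 HCT116-GFP is a human colorectal cancer cell line that carries a KRAS mutation, is microsatellite-unstable and always makes green fluorescent protein; the immune cells came from healthy donors. Live-cell imaging of the green signal stood in for cancer cell survival, and activated immune cells alone cut survival to about half.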

The test has as its system HCT116-GFP. The test can be described thus: HCT116-GFP viability (GFP intensity) relative to untreated HCT116-GFP monoculture control, co-culture with activated PBMCs; higher = less cancer cell killing. Particulars: culture: co-culture with anti-CD3/IL2 activated PBMCs 1:1; 10 µM; 72 h.
`CC(=O)c1ccc2c(c1)N(CCCN(C)C)c1ccccc1S2` [Acetopromazine maleate salt] yielded an HCT116-GFP viability of 52%. The result for `CC(C)(C#N)c1cc(Cn2cncn2)cc(C(C)(C)C#N)c1` [Anastrozole] reads 56.9%. `Oc1c(I)cc(Cl)c2cccnc12` [Clioquinol] had an HCT116-GFP viability of 48%. In the case of `Cc1ccc(C)c(OCCCC(C)(C)C(=O)O)c1` [Gemfibrozil] it was 49.3%; in that of `O=C(CCCN1CCC(O)(c2ccc(Cl)cc2)CC1)c1ccc(F)cc1` [Haloperidol], 30.9%. In the case of `NC(=O)c1ccc[n+]([C@@H]2O[C@H](COP(=O)([O-])OP(=O)(O)OC[C@H]3O[C@@H](n4cnc5c(N)ncnc54)[C@H](O)[C@@H]3O)[C@@H](O)[C@H]2O)c1` [Nadide] it was 77.4%. The result for `CNCCC=C1c2ccccc2C=Cc2ccccc21` [Norcyclobenzaprine] reads 64.4%.

Turning to `NC(=O)OCC(O)COc1ccc(Cl)cc1` (centres undefined) [Chlorphensin carbamate], the HCT116-GFP viability worked out at 55.1%. The result for `CN1C(C(=O)Nc2ccccn2)=C(O)c2ccccc2S1(=O)=O` [Piroxicam] reads 32.3%; that for `COCCOC(=O)C1=C(C)NC(C)=C(C(=O)OC(C)C)C1c1cccc([N+](=O)[O-])c1` (centres undefined) [Nimodipine], 55.8%; that for `COC(=O)CCc1ccc(OCC(O)CNC(C)C)cc1` (centres undefined) [Esmolol hydrochloride], 74.7%.

Compound `C[C@]12CCC(=O)C=C1C=C[C@@H]1[C@@H]2CC[C@@]2(C)[C@H]1CC[C@@]21CCC(=O)O1` [Canrenone] registered an HCT116-GFP viability of 55%. The result for `COc1cccc(N(C)C(=S)Oc2ccc3c(c2)CCCC3)n1` [Liranaftate] reads 59.8%; that for `CCCNC(C)C(=O)Nc1c(C)csc1C(=O)OC` (centres undefined) [Articaine hydrochloride], 46.1%; that for `NCCc1cc[nH]n1` [Betazole hydrochloride], 53%. The result for `Cc1c(NC(C)C)c(=O)n(-c2ccccc2)n1C` [Isopyrin hydrochloride] reads 77%; that for `CC(C[N+](C)(C)C)OC(N)=O` (centres undefined) [Bethanechol chloride], 28%; that for `CN(C)CCN(Cc1ccc(Cl)cc1)c1ccccn1` [Chloropyramine hydrochloride], 78.9%.

In the case of `NS(=O)(=O)Cc1noc2ccccc12` [Zonisamide], the HCT116-GFP viability is 73.5%. In the case of `COc1ccc2c(c1)C(=O)N(CCc1ccc(S(=O)(=O)NC(=O)NC3CCCCC3)cc1)C(=O)C2(C)C` [Gliquidone] it was 49.4%. In the case of `COc1ccc([C@@H]2Sc3ccccc3N(CCN(C)C)C(=O)[C@@H]2OC(C)=O)cc1` [Diltiazem hydrochloride] it was 47%.

Compound `Cc1cn([C@H]2C[C@H](N=[N+]=[N-])[C@@H](CO)O2)c(=O)[nH]c1=O` [Zidovudine, AZT] had an HCT116-GFP viability of 18.3%. The result for `CN(C)c1cc(NC(=O)CNC(C)(C)C)c(O)c2c1C[C@H]1C[C@H]3[C@H](N(C)C)C(O)=C(C(N)=O)C(=O)[C@@]3(O)C(O)=C1C2=O` [Tigecycline] reads 74.4%; that for `COc1cc(NS(=O)(=O)c2ccc(N)cc2)nc(OC)n1` [Sulfadimethoxine], 65%; that for `CC[N+](CC)(CC(=O)Nc1c(C)cccc1C)Cc1ccccc1` [Denatonium benzoate], 38.3%. In the case of `CC1(C)O[C@@H]2[C@@H](CO[C@@]3(COS(N)(=O)=O)OC(C)(C)O[C@@H]23)O1` [Topiramate] it was 49.7%; in that of `Cc1cccc(Nc2ccncc2S(=O)(=O)NC(=O)NC(C)C)c1` [Torsemide], 33%; in that of `NC(=O)N1c2ccccc2CC(=O)c2ccccc21` [Oxcarbazepine], 50.8%. The result for `CC(C)Cn1cnc2c(N)nc3ccccc3c21` [Imiquimod] reads 31.6%; that for `CC(C)NC(=N)NC(=N)Nc1ccc(Cl)cc1` [Proguanil hydrochloride], 34.3%; that for `COc1ccc2c3c1O[C@H]1C[C@@H](O)C=C[C@@]31CCN(C)C2` [Galanthamine hydrobromide], 32.4%. On to `O=c1[nH]c(=O)n([C@H]2C[C@H](O)[C@@H](CO)O2)cc1C(F)(F)F` [Trifluridine], for which the HCT116-GFP viability was determined as 14.6%. The result for `Cc1nnc(SCC2=C(C(=O)O)N3C(=O)[C@@H](NC(=O)Cn4cnnn4)[C@H]3SC2)s1` [Cefazolin sodium salt] reads 80%; that for `S=c1[nH]cnc2nc[nH]c12` [Mercaptopurine], 31.2%; that for `CCCCCCCCNC(C)C(O)c1ccc(SC(C)C)cc1` (centres undefined) [Suloctidil], 2.85%.

In the case of `CC(=O)CC(c1ccc([N+](=O)[O-])cc1)c1c(O)c2ccccc2oc1=O` (centres undefined) [Acenocoumarol], the HCT116-GFP viability worked out at 50.4%.

In the case of `CN(Cc1ccc(C(C)(C)C)cc1)Cc1cccc2ccccc12` [Butenafine Hydrochloride], the HCT116-GFP viability amounted to 43.2%. The result for `Nc1nnc(-c2cccc(Cl)c2Cl)c(N)n1` [Lamotrigine] reads 47.3%; that for `CC[C@@]1(O)C(=O)OCc2c1cc1n(c2=O)Cc2cc3c(CN(C)C)c(O)ccc3nc2-1` [Topotecan], 3.41%. The result for `Clc1cc(Cl)c(OCC#CI)cc1Cl` [Haloprogin] reads 56.3%; that for `Nc1nc(=O)[nH]cc1F` [Flucytosine], 66.5%. The result for `Cc1cccc(C)c1NC(=O)CN1CCN(CCCC(c2ccc(F)cc2)c2ccc(F)cc2)CC1` [Lidoflazine] reads 35%. Turning to `CC(=O)O[C@]1(C(C)=O)CC[C@H]2[C@@H]3C=C(C)C4=CC(=O)CC[C@]4(C)[C@H]3CC[C@@]21C` [Megestrol acetate], the HCT116-GFP viability turned out to be 81.6%.

`CC(C)(C)NCC(O)COc1cccc2c1CC(O)C(O)C2` (centres undefined) [Nadolol]: the HCT116-GFP viability worked out at 72.1%. The result for `CCOCCn1c(N2CCCN(C)CC2)nc2ccccc21` [Emedastine] reads 32.6%. In the case of `Cc1cccn2c(=O)c(-c3nnn[nH]3)cnc12` [Pemirolast potassium] it was 43.1%. `CC[C@H](C)C(=O)O[C@H]1C[C@H](O)C=C2C=C[C@H](C)[C@H](CC[C@@H](O)C[C@@H](O)CC(=O)O)[C@H]21` [Pravastatin]: the HCT116-GFP viability was found to be 22.9%.

In turn, `CC(=O)NC[C@H]1CN(c2ccc(N3CCOCC3)c(F)c2)C(=O)O1` [Linezolid] gave an HCT116-GFP viability of 49%. The result for `Cc1nccn1CC1CCc2c(c3ccccc3n2C)C1=O` (centres undefined) [Ondansetron Hydrochloride] reads 37%; that for `COc1ccc2c(c1)c(CC(=O)OCC(=O)O)c(C)n2C(=O)c1ccc(Cl)cc1` [Acemetacin], 52.7%; that for `CCCCC1C(=O)N(c2ccccc2)N(c2ccccc2)C1=O` [Phenylbutazone], 43%.

Compound `CCCc1nc2c(C)cc(-c3nc4ccccc4n3C)cc2n1Cc1ccc(-c2ccccc2C(=O)O)cc1` [Telmisartan] showed an HCT116-GFP viability of 48.7%.

The compound `CCCCOC(=O)c1ccc(O)cc1` [Butylparaben] showed an HCT116-GFP viability of 65.6%.

As to `N=C(N)N1CCc2ccccc2C1` [Debrisoquin sulfate], the HCT116-GFP viability is 35.4%. In the case of `CC(=O)/N=c1/sc(S(N)(=O)=O)nn1C` [Methazolamide] it was 65.8%.

Turning to `O=C(O)Cc1cc(I)c(Oc2ccc(O)c(I)c2)c(I)c1` [Tiratricol, 3,3',5-triiodothyroacetic acid], the HCT116-GFP viability was determined as 41.9%. Regarding `COCCCOc1ccnc(C[S+]([O-])c2nc3ccccc3[nH]2)c1C` (centres undefined) [Rabeprazole Sodium salt], the HCT116-GFP viability came to 56.1%. The result for `CNCC[C@@H](Oc1ccccc1C)c1ccccc1` [Tomoxetine hydrochloride] reads 57.7%; that for `O=C(CCCCC(=O)Nc1c(I)cc(I)c(C(=O)O)c1I)Nc1c(I)cc(I)c(C(=O)O)c1I` [Iodipamide], 76.9%; that for `Cc1c(F)c(N2CCNC(C)C2)cc2c1c(=O)c(C(=O)O)cn2C1CC1` (centres undefined) [Grepafloxacin], 57%. `CC(=O)OCC(=O)[C@@]12OC3(CCCC3)O[C@@H]1C[C@H]1[C@@H]3CCC4=CC(=O)C=C[C@]4(C)[C@@]3(F)[C@@H](O)C[C@@]12C` [Amcinonide] had an HCT116-GFP viability of 58.2%. The result for `N=C(N=C(N)N)N1CCOCC1` [Moroxidine hydrochloride] reads 33%; that for `CCCC(=O)Nc1ccc(OCC(O)CNC(C)C)c(C(C)=O)c1` (centres undefined) [Acebutolol hydrochloride], 48.5%; that for `CN1[C@@H]2CC[C@H]1C[C@@H](OC(c1ccccc1)c1ccccc1)C2` [Benztropine mesylate], 42.5%.

`CC(=O)Nc1ccc(OCC(O)CNC(C)C)cc1` (centres undefined) [Practolol] gave an HCT116-GFP viability of 53.6%. Consider `O=C(Nc1ccccc1)OCC(CN1CCCCC1)OC(=O)Nc1ccccc1` (centres undefined) [Diperodon hydrochloride], for which the HCT116-GFP viability was 69.9%. The result for `O=C(O)c1cc(=O)c2c(OCC(O)COc3cccc4oc(C(=O)O)cc(=O)c34)cccc2o1` [Cromolyn disodium salt] reads 67%; that for `Cc1ccc(O)c([C@H](CCN(C(C)C)C(C)C)c2ccccc2)c1` [Tolterodine tartrate], 9.27%. The result for `CCCCOc1ccc(CC(=O)NO)cc1` [Bufexamac] reads 40.7%; that for `CC(=O)OC(C)C[N+](C)(C)C` (centres undefined) [Methacholine chloride], 71.8%; that for `C=CCc1ccccc1OCC(O)CNC(C)C` (centres undefined) [Alprenolol hydrochloride], 37.5%. The result for `NC[C@H]1CC[C@H](C(=O)O)CC1` [Tranexamic acid] reads 35.5%. Compound `Cc1c(O)cccc1C(=O)N[C@@H](CSc1ccccc1)[C@H](O)CN1C[C@H]2CCCC[C@H]2C[C@H]1C(=O)NC(C)(C)C` [Nelfinavir mesylate] showed an HCT116-GFP viability of 40.7%. Compound `CCSc1ccc2c(c1)N(CCCN1CCN(C)CC1)c1ccccc1S2` [Thiethylperazine dimalate] came in with an HCT116-GFP viability of 17.6%. For `CN(C)CCC(c1ccccc1)c1ccccn1` (centres undefined) [Pheniramine maleate], the HCT116-GFP viability was found to be 44.8%. In the case of `CCN(CCCc1ccccc1)CCCc1ccccc1` [Alverine citrate salt] it was 39.7%.

As to `O=P(O)(O)C(O)(Cc1cccnc1)P(=O)(O)O` [Risedronic acid monohydrate], the HCT116-GFP viability was found to be 12.6%. In the case of `CCN(CC)C(=O)N1CCN(C)CC1` [Diethylcarbamazine citrate] it was 43.7%; in that of `C=CC[N@@+]12CC[C@@]34c5ccccc5N5/C=C6/[C@H]7C[C@H]8[C@@]9(CC[N@@+]8(CC=C)C/C7=C/CO)c7ccccc7N(/C=C(/[C@@H](C[C@@H]31)/C(=C\CO)C2)[C@H]54)[C@@H]69` [Alcuronium chloride], 38.5%.
